# Library screen at single concentrations

The values are deposited in ChEMBL (CHEMBL3988442, “University of Dundee, Small-Polar-MMV Screening Library” (2021)).

Mtb cholesterol medium: 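Whole-cell growth test on Mycobacterium tuberculosis, read after 4 days in a medium based on cholesterol and the lipid DPPC; the read-out is not stated. Compounds at 50 µM. Direction is inferred from retests: higher values go with more growth inhibition. About 69,000 compounds were tested under these conditions; 0.54% (about 370) showed 50% or more at least once.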
Mtb glucose medium: 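Whole-cell growth test on Mycobacterium tuberculosis, read after 3 days in glucose-containing 7H9 medium; the read-out is not stated. Tested at 50 µM. Direction is inferred from retests: higher values go with more growth inhibition. About 69,000 compounds were tested under these conditions; 1.1% (about 760) showed 50% or more at least once.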

Values are the deposited “Percent Effect”, in %.
The controls that fix the scale are not given in the record; negative values are as filed.
This is an unselected part of the compounds tested.
Two or more numbers in one place are separate tests of the same structure; such repeats can differ widely.

- Cc1cnn(CC2CN(Cc3nc4ccccc4o3)CCO2)c1 (configuration not stated) : Mtb cholesterol medium: 18.23%; Mtb glucose medium: 13.29%
- Cc1ccc(C(=O)NC2CCCCNC2=O)c(=O)[nH]1 (configuration not stated) : Mtb cholesterol medium: -8.188%; Mtb glucose medium: 12.24% and 5.465%
- N#Cc1cccnc1NCCNC(=O)N1CCCSCC1 : Mtb cholesterol medium: 26.98%; Mtb glucose medium: 17.96%
- Cn1ccnc1-c1cccc(NC(=O)NCC(=O)NC(C)(C)C)c1 : Mtb cholesterol medium: -41.1%; Mtb glucose medium: -29.12%
- CCN1CCCC1CNC(=O)c1cc(COc2ccccc2F)[nH]n1 (configuration not stated) : Mtb cholesterol medium: 0.9453%; Mtb glucose medium: -5.717%
- NC(=O)c1ccc(N2CCCCC2)c(NC(=O)c2ccc(Br)cc2)c1 : Mtb cholesterol medium: -3.414%; Mtb glucose medium: 7.13% and 0.1984%
- CC(C)N1CCC(O)(CNC(=O)CC2OCCc3ccccc32)CC1 (configuration not stated) : Mtb cholesterol medium: -15.81%; Mtb glucose medium: -5.711%
- CCOc1ccc(C(F)(F)F)cc1NCc1cc(C)on1 : Mtb cholesterol medium: 14.38%; Mtb glucose medium: 33.85%
- COc1c(CNC2CCc3ccccc32)c(C)nn1C (configuration not stated) : Mtb cholesterol medium: -14.1%; Mtb glucose medium: -22.49%
- CCCN(CCC)C1(Cc2cc(-c3cccc(O)c3)on2)COC1 : Mtb cholesterol medium: -16.13%; Mtb glucose medium: 0.4878% and 5.143%
- CSc1ccc2cc(CN(C)CCO)c(=O)[nH]c2c1 : Mtb cholesterol medium: -18.71% and -10.75%; Mtb glucose medium: -2.072% and -12.36%
- CCOCC(=O)N1CCCC2(CCN(c3ccccc3)C2=O)C1 (configuration not stated) : Mtb cholesterol medium: 19.25%; Mtb glucose medium: -21.87%
- CC1CCCN(Cc2c(C3CC3)[nH]c3ncccc23)C1 (configuration not stated) : Mtb cholesterol medium: -10.39%; Mtb glucose medium: 1.696%
- Cc1ccc(C)c(OCC(=O)NC2CCN(c3ccccn3)CC2)c1 : Mtb cholesterol medium: 13.8%; Mtb glucose medium: 21.05% and 11.03%
- COc1ccc(C(=O)C2CCCN(Cc3ccc(C)o3)C2)c(OC)c1 (configuration not stated) : Mtb cholesterol medium: 5.752%; Mtb glucose medium: 23.44%
- NC(=O)C1CCN(CC(=O)N2CCCC2c2ccsc2)CC1 (configuration not stated) : Mtb cholesterol medium: -14.53%; Mtb glucose medium: -7.728% and -11.13%
- O=C(O)C(F)(F)F.[H][C@@]12CN(Cc3cccs3)C[C@]1([H])CN(C(=O)c1cccn1C)C2 : Mtb cholesterol medium: 5.982%; Mtb glucose medium: -17.62%
- CC1CN(C)CCN1C(=O)Cc1cc(Cl)c2c(c1)OCCO2 (configuration not stated) : Mtb cholesterol medium: -5.476%; Mtb glucose medium: 9.075%
- CC(C)c1nc2cc(NC(=O)Cn3ccccc3=O)ccc2o1 : Mtb cholesterol medium: -9.938%; Mtb glucose medium: 1.917% and -15.4%
- O=C(COCc1ccccc1Cl)N1CCCC(n2ccnc2)C1 (configuration not stated) : Mtb cholesterol medium: -4.058%; Mtb glucose medium: 9.905%
- CC(C)c1nc(CNC2CCCN(c3cccnn3)C2)no1 (configuration not stated) : Mtb cholesterol medium: 6.109%; Mtb glucose medium: -8.761% and 29.36%
- O=C(c1ccco1)N1CCCC1C1CCN(Cc2ccccc2)CC1 (configuration not stated) : Mtb cholesterol medium: 3.109%; Mtb glucose medium: -2.789% and -10.81%
- CCc1c(C)nn(CC(=O)NC(C(=O)O)c2c(C)n[nH]c2C)c1C (configuration not stated) : Mtb cholesterol medium: -15.39%; Mtb glucose medium: -11.11% and 1.322%
- O=C(CCc1ccccn1)N1CCCN(C(=O)CC2CCCC2)CC1 : Mtb cholesterol medium: -4.818%; Mtb glucose medium: -13.55%
- O=C(O)C(F)(F)F.[H][C@@]12CCCO[C@]1([H])[C@H](NC(=O)c1cnn(C)c1)CN2Cc1cccs1 : Mtb cholesterol medium: 23.16%; Mtb glucose medium: 26.13%
- CS(=O)(=O)N1CCOC(CNC(=O)c2cccc(C#N)c2)C1 (configuration not stated) : Mtb cholesterol medium: -14.63%; Mtb glucose medium: 14%
- CCc1cnc(CN(C)C(=O)NC2CCN(CC3CC3)C2)s1 (configuration not stated) : Mtb cholesterol medium: -22.27%; Mtb glucose medium: -13.41%
- CCC(=O)Nc1cccc(OCC(=O)N2CC=CC2C(C)C)c1 (configuration not stated) : Mtb cholesterol medium: -18.83%; Mtb glucose medium: -8.955%
- Cc1cc(F)c2c(c1)CCCN2Cc1cc(=O)n(C)c(=O)n1C : Mtb cholesterol medium: -9.205% and -36.87%; Mtb glucose medium: -17.89%
- Cc1nc(CNC(=O)N2CCN(c3ccc(Cl)cn3)CC2)sc1C : Mtb cholesterol medium: -0.9164%; Mtb glucose medium: -7.5%
- CS(=O)(=O)Nc1cccc(CNC(=O)CCNC(=O)c2cccs2)c1 : Mtb cholesterol medium: -30.41%; Mtb glucose medium: -15.89%
- COc1cnc(N2CCC(c3ncc[nH]3)CC2)nc1 : Mtb cholesterol medium: -23.02%; Mtb glucose medium: -75.99%
- Cl.Cl.O=C(NCc1cncc2c1CCN(CC1CCOC1)C2)c1ccco1 (configuration not stated) : Mtb cholesterol medium: -13.36%; Mtb glucose medium: -36.17%
- Cc1ccccc1-n1nccc1NC(=O)CCOC(C)C : Mtb cholesterol medium: 12.81%; Mtb glucose medium: 7.733% and 5.195%
- CNC(=O)NC(=O)CCSc1ccccc1C : Mtb cholesterol medium: -0.6631%; Mtb glucose medium: -4.019%
- CC(O)CCn1ccc2[nH]c(=O)c(C#N)cc2c1=O (configuration not stated) : Mtb cholesterol medium: -25.68%; Mtb glucose medium: -34.29%
- CN(C)Cc1cncc2c1CCN(C1CCOCC1)C2.Cl.Cl.Cl : Mtb cholesterol medium: -8.88%; Mtb glucose medium: 7.021%

Once more, the final 3:

compound	Mtb cholesterol medium	Mtb glucose medium
CNC(=O)NC(=O)CCSc1ccccc1C	-0.6631%	-4.019%
CC(O)CCn1ccc2[nH]c(=O)c(C#N)cc2c1=O (configuration not stated)	-25.68%	-34.29%
CN(C)Cc1cncc2c1CCN(C1CCOCC1)C2.Cl.Cl.Cl	-8.88%	7.021%